Test results: US12723053B2, “KRas inhibitors” (ELI LILLY AND COMPANY, priority 2023, dated 2026)
Some of these results come from one statement about several compounds together.

Experiments:
KRAS G12C = biological target: T1, KRAS G12C (Homo sapiens, UniProt P01116, G12C); assay: Cellular Phospho-ERK AlphaLISA assay, NCI-1373 cells; assay type: cell-based; conditions: 2 h incubation; read-out: relative IC50, reduction of phosphorylated ERK-1/2, cells expressing KRAS G12C
T1 construct: endogenous in cells; host or cells: NCI-1373 human lung cancer cells (so in the source); probably NCI-H1373

WT KRAS Amplification = biological target: T2, WT KRAS Amplification (Homo sapiens, UniProt P01116); assay: Cellular Phospho-ERK AlphaLISA assay, MKN45 cells; assay type: cell-based; conditions: 2 h incubation; cell line for KRAS WT not given; read-out: relative IC50, reduction of phosphorylated ERK-1/2, cells expressing KRAS WT
T2 construct: endogenous in cells; host or cells: MKN45 human gastric cancer cells

KRAS G12V = biological target: T3, KRAS G12V (Homo sapiens, UniProt P01116, G12V); assay: Cellular Phospho-ERK AlphaLISA assay, SW620 cells; assay type: cell-based; conditions: for IC50: 2 h incubation, read-out: relative IC50, reduction of phosphorylated ERK-1/2, cells expressing KRAS G12V; for selective inhibition preference for KRas G12V mutant over HRAS and NRAS: SW620 vs MEF-NRAS or MEF-HRAS Phospho-ERK AlphaLISA
T3 construct: endogenous in cells; host or cells: SW620 human colorectal cancer cells

KRAS G12D = biological target: T4, KRAS G12D (Homo sapiens, UniProt P01116, G12D); assay: Cellular Phospho-ERK AlphaLISA assay, HPAC cells; assay type: cell-based; conditions: 2 h incubation; read-out: relative IC50, reduction of phosphorylated ERK-1/2, cells expressing KRAS G12D
T4 construct: endogenous in cells; host or cells: HPAC human pancreatic cancer cells

HRAS = HRAS (Homo sapiens, UniProt P01112); assay: Cellular Phospho-ERK AlphaLISA assay, MEF-HRAS cells; assay type: cell-based, mouse; conditions: RAS-less MEFs expressing HRAS only; read-out: relative IC50, phospho-ERK, MEF-HRAS
NRAS = NRAS (Homo sapiens, UniProt P01111); assay: Cellular Phospho-ERK AlphaLISA assay, MEF-NRAS cells; assay type: cell-based, mouse; conditions: RAS-less MEFs expressing NRAS only; read-out: relative IC50, phospho-ERK, MEF-NRAS

| Compound | IC50 (KRAS G12C) | IC50 (WT KRAS Amplification) | IC50 (KRAS G12V) | selective inhibition preference for KRas G12V mutant over HRAS and NRAS (KRAS G12V) | IC50 (KRAS G12D) | IC50 (HRAS) | IC50 (NRAS) |
| --- | --- | --- | --- | --- | --- | --- | --- |
| CC(C)N(C)[C@@H]1CN(c2ncc3c4c(c(-c5ncc(F)c6sc(N)c(C#N)c56)c(Cl)c3n2)COC4)C[C@H]1O (single isomer, unassigned; atropisomer 1) [Example 3D] | < 500 nM | < 500 nM | < 500 nM | greater than 10 fold | < 500 nM | – | – |
| CNC[C@H]1CCN(c2ncc3c4c(c(-c5ncc(F)c6sc(N)c(C#N)c56)c(Cl)c3n2)COC4)[C@H]1C (single isomer, unassigned; atropisomer 1) [Example 5D] | < 500 nM | < 500 nM | – | – | < 500 nM | > 2000 nM | > 2000 nM |
| CN(C)[C@@H]1CN(c2ccc3c4c(c(-c5ncc(F)c6sc(N)c(C#N)c56)c(Cl)c3n2)COC4)C[C@@H]1O (single isomer, unassigned; atropisomer 1) [Example 54C] | < 500 nM | < 500 nM | < 500 nM | greater than 10 fold | < 500 nM | – | – |
| CC(C)N[C@@H]1CN(c2ncc3c4c(c(-c5c(F)ccc6sc(N)c(C#N)c56)c(F)c3n2)COC4)C[C@@H]1C (single isomer, unassigned; atropisomer 1) [Example 58C] | < 500 nM | < 500 nM | < 500 nM | – | < 500 nM | – | – |
| CN1CCN([C@@H]2CCN(c3ncc4c5c(c(-c6c(F)cnc7sc(N)c(C#N)c67)c(F)c4n3)COC5)C2)CC1 (single isomer, unassigned; atropisomer 1) [Example 240D] | < 500 nM | < 500 nM | < 500 nM | greater than 10 fold | < 500 nM | – | – |
| CC(C)N[C@@H]1CN(c2ncc3c4c(c(-c5c(F)ccc6sc(N)c(C#N)c56)c(F)c3n2)COC4)C[C@H]1C (single isomer, unassigned; atropisomer 1) [Example 242D] | < 500 nM | < 500 nM | < 500 nM | – | < 500 nM | – | – |
| CN(C)[C@H]1CN(c2ncc3c4c(c(-c5c(F)ccc6sc(N)c(C#N)c56)c(F)c3n2)COC4)C[C@H]1O (single isomer, unassigned; atropisomer 1) [Example 244D] | < 500 nM | < 500 nM | < 500 nM | greater than 10 fold | < 500 nM | – | – |
| CC(C)N(C)[C@H]1CN(c2ncc3c4c(c(-c5c(F)ccc6sc(N)c(C#N)c56)c(F)c3n2)COC4)C[C@H]1O (single isomer, unassigned; atropisomer 1) [Example 254D] | < 500 nM | < 500 nM | < 500 nM | greater than 10 fold | < 500 nM | – | – |
| CC(C)N(C)[C@H]1CN(c2ncc3c4c(c(-c5ncc(F)c6sc(N)c(C#N)c56)c(Cl)c3n2)COC4)C[C@H]1O (single isomer, unassigned; atropisomer 2) [Example 2D] | < 500 nM | < 500 nM | < 500 nM | greater than 10 fold | < 500 nM | – | – |
| C[C@H]1[C@H](N2CCN(C)CC2)CCN1c1ncc2c3c(c(-c4ncc(F)c5sc(N)c(C#N)c45)c(Cl)c2n1)COC3 (single isomer, unassigned; atropisomer 2) [Example 12D] | < 500 nM | < 500 nM | < 500 nM | – | < 500 nM | – | – |
| CN1CCN([C@@H]2CCN(c3ncc4c5c(c(-c6ncc(F)c7sc(N)c(C#N)c67)c(Cl)c4n3)COC5)C2)CC1 (single isomer, unassigned; atropisomer 2) [Example 14D] | < 500 nM | < 500 nM | < 500 nM | greater than 10 fold | < 500 nM | – | – |
| CN(C)[C@H]1CN(c2ccc3c4c(c(-c5ncc(F)c6sc(N)c(C#N)c56)c(Cl)c3n2)COC4)C[C@@H]1O (single isomer, unassigned; atropisomer 2) [Example 51C] | < 500 nM | < 500 nM | < 500 nM | greater than 10 fold | < 500 nM | – | – |
| CN(C)[C@@H]1CN(c2ccc3c4c(c(-c5ncc(F)c6sc(N)c(C#N)c56)c(Cl)c3n2)COC4)C[C@H]1O (single isomer, unassigned; atropisomer 2) [Example 53C] | < 500 nM | < 500 nM | < 500 nM | greater than 10 fold | < 500 nM | – | – |
| CN(C)[C@H]1CN(c2ccc3c4c(c(-c5ncc(F)c6sc(N)c(C#N)c56)c(Cl)c3n2)COC4)C[C@H]1O (single isomer, unassigned; atropisomer 2) [Example 57C] | < 500 nM | < 500 nM | < 500 nM | greater than 10 fold | < 500 nM | – | – |
| CN(C)[C@@H]1CN(c2ncc3c4c(c(-c5ncc(F)c6sc(N)c(C#N)c56)c(Cl)c3n2)COC4)C[C@H]1O (single isomer, unassigned; atropisomer 2) [Example 65C] | < 500 nM | < 500 nM | < 500 nM | greater than 10 fold | < 500 nM | – | – |
| CN(C)[C@@H]1CN(c2ncc3c4c(c(-c5ncc(F)c6sc(N)c(C#N)c56)c(Cl)c3n2)COC4)C[C@@H]1O.O=CO (single isomer, unassigned; atropisomer 2) [Example 67C] | < 500 nM | < 500 nM | < 500 nM | – | < 500 nM | – | – |
| CC(C)N[C@H]1CCN(c2ncc3c4c(c(-c5ncc(F)c6sc(N)c(C#N)c56)c(Cl)c3n2)COC4)C1 (single isomer, unassigned; atropisomer 2) [Example 81C] | < 500 nM | < 500 nM | < 500 nM | – | < 500 nM | – | – |
| CC(C)N[C@H]1CCN(c2ncc3c4c(c(-c5c(F)ccc6sc(N)c(C#N)c56)c(F)c3n2)COC4)[C@@H]1C (single isomer, unassigned; atropisomer 2) [Example 90C] | < 500 nM | < 500 nM | – | – | < 500 nM | – | – |
| CO[C@@H]1CN(c2ncc3c4c(c(-c5c(F)ccc6sc(N)c(C#N)c56)c(F)c3n2)COC4)C[C@H]1NC(C)C (single isomer, unassigned; atropisomer 2) [Example 92C] | < 500 nM | < 500 nM | < 500 nM | – | < 500 nM | – | – |
| CO[C@H]1CN(c2ncc3c4c(c(-c5c(F)cnc6sc(N)c(C#N)c56)c(F)c3n2)COC4)C[C@H]1NC(C)C (single isomer, unassigned; atropisomer 2) [Example 239D] | < 500 nM | < 500 nM | – | – | < 500 nM | – | – |
| CN(C)C1(CO)CCN(c2ncc3c4c(c(-c5c(F)ccc6sc(N)c(C#N)c56)c(F)c3n2)COC4)C1 (single isomer, unassigned; diastereomer 1) [Example 60C, 2-Amino-4-(3-(3-(dimethylamino)-3-(hydroxymethyl)pyrrolidin-1-yl)-5-fluoro-7,9-dihydrofuro[3,4-f]quinazolin-6-yl)-5-fluorobenzo[b]thiophene-3-carbonitrile, Diastereomer 1] | < 500 nM | < 500 nM | < 500 nM | greater than 10 fold | < 500 nM | – | – |
| N#Cc1c(N)sc2c(F)cnc(-c3c4c(c5cnc(OCC6(CN7CCOCC7)CC6)nc5c3F)COC4)c12 [Example 19, 2-Amino-7-fluoro-4-(5-fluoro-3-((1-(morpholinomethyl)cyclopropyl)methoxy)-7,9-dihydrofuro[3,4-f]quinazolin-6-yl)thieno[3,2-c]pyridine-3-carbonitrile] | < 500 nM | < 500 nM | < 500 nM | greater than 10 fold | < 500 nM | – | – |
| N#Cc1c(N)sc2c(F)cnc(-c3c4c(c5cnc(OCC6(CN7CC[C@H](F)C7)CC6)nc5c3F)COC4)c12 [Example 20, 2-Amino-7-fluoro-4-(5-fluoro-3-((1-(((S)-3-fluoropyrrolidin-1-yl)methyl)cyclopropyl)methoxy)-7,9-dihydrofuro[3,4-f]quinazolin-6-yl)thieno[3,2-c]pyridine-3-carbonitrile] | < 500 nM | < 500 nM | < 500 nM | greater than 10 fold | < 500 nM | – | – |
| N#Cc1c(N)sc2c(F)cnc(-c3c4c(c5cnc(OCC6(CN7CCOCC7)CCC6)nc5c3F)COC4)c12 [Example 23, 2-Amino-7-fluoro-4-(5-fluoro-3-((1-(morpholinomethyl)cyclobutyl)methoxy)-7,9-dihydrofuro[3,4-f]quinazolin-6-yl)thieno[3,2-c]pyridine-3-carbonitrile] | < 500 nM | < 500 nM | < 500 nM | greater than 10 fold | < 500 nM | – | – |
